According to the supplement of paper PMC11732987, “Enantioselective OTUD7B fragment discovery through chemoproteomics screening and high-throughput optimisation” (Communications Chemistry, 2025):
This is one part of the list. The data scatter; read single values as rough.

Sequences of proteins named here, by UniProt entry; tags and fusion partners are left off. A change or cut given only in a name is not applied to a line headed by its entry. Residues count along the entry.
UniProt Q13907: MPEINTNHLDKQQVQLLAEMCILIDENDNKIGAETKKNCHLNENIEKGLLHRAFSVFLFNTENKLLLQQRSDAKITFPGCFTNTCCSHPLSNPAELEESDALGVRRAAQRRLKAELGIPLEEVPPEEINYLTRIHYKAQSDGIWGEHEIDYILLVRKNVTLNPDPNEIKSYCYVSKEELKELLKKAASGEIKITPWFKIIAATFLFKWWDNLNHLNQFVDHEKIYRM
UniProt P17181: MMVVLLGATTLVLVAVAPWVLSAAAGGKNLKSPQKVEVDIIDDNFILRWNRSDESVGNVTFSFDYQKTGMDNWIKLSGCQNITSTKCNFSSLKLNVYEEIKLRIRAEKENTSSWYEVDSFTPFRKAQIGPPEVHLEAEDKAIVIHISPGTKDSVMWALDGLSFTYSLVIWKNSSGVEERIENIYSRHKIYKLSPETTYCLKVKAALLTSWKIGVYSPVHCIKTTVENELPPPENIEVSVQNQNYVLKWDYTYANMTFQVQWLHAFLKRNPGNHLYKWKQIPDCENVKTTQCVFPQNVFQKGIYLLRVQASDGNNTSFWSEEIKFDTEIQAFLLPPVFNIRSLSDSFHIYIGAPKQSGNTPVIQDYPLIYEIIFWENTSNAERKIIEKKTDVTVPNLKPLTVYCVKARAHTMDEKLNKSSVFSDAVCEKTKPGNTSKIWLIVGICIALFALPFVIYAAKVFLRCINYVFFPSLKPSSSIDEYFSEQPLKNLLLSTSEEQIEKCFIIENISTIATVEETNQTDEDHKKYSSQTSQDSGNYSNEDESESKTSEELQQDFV
UniProt Q9UL03, 238-266: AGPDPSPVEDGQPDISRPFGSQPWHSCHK
UniProt Q96F46, 626-649: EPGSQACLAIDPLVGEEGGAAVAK
UniProt Q9H0C8: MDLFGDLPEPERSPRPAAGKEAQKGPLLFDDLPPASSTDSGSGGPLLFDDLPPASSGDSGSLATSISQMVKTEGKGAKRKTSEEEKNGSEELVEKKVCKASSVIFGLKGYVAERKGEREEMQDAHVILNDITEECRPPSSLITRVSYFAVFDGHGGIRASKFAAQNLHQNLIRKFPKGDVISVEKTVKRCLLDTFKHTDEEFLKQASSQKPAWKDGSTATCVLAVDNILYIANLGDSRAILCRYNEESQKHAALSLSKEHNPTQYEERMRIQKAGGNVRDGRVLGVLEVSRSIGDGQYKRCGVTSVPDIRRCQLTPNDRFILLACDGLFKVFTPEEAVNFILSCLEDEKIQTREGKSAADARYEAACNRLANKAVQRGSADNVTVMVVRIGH
UniProt Q14642: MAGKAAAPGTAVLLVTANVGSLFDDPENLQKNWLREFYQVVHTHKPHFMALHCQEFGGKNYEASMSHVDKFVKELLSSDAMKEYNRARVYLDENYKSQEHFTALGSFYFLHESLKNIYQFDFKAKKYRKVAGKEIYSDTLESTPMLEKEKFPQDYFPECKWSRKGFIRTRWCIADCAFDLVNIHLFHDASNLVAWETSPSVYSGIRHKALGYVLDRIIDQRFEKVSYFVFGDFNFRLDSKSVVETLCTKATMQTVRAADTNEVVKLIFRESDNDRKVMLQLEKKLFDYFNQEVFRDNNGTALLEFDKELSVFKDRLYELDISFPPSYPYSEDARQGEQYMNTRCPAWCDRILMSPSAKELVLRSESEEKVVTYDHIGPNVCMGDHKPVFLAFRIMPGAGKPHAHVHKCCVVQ
UniProt Q5TA45: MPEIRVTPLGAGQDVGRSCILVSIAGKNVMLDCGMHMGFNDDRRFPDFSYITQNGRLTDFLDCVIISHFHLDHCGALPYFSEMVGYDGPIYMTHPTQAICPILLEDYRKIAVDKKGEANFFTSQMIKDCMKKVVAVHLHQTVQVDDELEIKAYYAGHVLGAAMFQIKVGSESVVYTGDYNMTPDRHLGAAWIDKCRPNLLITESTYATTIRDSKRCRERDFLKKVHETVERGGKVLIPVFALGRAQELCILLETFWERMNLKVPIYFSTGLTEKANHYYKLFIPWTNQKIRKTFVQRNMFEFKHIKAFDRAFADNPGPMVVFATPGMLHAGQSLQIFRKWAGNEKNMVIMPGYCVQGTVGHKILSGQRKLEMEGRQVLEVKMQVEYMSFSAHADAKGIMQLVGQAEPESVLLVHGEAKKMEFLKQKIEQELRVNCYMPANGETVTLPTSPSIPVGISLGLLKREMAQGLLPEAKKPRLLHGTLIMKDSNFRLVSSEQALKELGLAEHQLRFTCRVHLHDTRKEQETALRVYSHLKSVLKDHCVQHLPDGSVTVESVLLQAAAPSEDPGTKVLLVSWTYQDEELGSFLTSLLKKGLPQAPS
UniProt O60921: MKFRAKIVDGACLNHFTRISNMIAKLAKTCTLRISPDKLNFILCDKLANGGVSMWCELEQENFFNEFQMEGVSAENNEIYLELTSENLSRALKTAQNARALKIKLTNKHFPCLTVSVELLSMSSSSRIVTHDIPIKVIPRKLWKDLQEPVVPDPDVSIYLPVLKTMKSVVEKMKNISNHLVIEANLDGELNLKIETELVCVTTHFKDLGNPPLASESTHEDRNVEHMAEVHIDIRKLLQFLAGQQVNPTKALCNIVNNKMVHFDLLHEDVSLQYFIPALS
UniProt Q9NZI8: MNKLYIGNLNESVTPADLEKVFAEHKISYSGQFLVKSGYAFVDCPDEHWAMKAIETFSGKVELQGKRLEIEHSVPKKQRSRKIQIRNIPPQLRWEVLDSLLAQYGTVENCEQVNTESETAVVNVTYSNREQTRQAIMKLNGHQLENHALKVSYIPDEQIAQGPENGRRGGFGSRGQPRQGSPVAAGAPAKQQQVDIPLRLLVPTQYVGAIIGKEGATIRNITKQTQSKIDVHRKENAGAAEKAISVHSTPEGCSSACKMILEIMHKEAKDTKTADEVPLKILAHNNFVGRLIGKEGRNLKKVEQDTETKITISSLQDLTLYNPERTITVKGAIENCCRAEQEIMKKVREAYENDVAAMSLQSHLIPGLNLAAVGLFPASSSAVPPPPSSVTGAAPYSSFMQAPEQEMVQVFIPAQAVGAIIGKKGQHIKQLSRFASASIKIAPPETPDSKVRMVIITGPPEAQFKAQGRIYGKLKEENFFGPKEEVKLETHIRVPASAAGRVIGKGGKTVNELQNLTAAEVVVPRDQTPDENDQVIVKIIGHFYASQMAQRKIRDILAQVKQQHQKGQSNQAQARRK
UniProt O15357: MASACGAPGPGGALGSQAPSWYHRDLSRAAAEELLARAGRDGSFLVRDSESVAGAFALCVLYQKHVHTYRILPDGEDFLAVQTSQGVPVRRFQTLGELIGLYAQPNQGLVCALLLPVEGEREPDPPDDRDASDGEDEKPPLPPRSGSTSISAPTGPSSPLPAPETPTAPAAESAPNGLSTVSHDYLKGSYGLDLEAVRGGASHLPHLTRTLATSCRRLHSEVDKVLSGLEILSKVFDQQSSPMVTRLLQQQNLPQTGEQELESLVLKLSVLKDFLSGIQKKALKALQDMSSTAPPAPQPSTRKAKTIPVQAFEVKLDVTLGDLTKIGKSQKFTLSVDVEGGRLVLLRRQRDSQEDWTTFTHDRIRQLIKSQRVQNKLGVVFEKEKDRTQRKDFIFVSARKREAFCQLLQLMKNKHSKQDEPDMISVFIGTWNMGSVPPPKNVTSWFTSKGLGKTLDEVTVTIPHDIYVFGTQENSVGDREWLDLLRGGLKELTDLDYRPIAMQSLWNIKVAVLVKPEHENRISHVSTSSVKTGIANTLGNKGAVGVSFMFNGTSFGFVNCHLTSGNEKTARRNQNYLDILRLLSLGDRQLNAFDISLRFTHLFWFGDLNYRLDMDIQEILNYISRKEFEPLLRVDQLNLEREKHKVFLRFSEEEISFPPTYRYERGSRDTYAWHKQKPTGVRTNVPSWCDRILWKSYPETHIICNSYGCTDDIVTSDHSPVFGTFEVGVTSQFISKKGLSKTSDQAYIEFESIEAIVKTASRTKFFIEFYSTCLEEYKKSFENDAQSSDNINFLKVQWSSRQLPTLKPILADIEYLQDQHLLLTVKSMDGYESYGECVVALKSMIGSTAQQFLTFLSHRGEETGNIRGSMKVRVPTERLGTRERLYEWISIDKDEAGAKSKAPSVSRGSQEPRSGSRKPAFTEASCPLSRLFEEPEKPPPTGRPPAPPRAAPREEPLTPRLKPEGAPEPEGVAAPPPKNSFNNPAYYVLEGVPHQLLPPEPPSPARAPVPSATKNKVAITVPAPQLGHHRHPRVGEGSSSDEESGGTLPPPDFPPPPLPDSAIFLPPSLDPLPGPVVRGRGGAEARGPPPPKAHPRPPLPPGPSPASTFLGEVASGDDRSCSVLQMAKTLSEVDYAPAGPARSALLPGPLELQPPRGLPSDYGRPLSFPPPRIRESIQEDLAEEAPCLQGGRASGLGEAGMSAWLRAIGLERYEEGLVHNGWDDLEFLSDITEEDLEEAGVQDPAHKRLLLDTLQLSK
UniProt O43837: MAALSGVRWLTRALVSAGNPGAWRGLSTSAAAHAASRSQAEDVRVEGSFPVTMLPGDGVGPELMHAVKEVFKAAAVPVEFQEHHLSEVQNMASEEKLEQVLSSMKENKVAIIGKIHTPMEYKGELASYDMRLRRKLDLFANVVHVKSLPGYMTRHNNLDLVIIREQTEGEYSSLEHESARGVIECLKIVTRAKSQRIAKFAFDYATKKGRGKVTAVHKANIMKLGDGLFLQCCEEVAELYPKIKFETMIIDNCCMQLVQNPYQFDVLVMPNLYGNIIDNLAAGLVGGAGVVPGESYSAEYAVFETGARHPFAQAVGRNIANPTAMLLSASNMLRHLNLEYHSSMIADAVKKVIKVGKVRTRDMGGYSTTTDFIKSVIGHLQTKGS
UniProt O14920: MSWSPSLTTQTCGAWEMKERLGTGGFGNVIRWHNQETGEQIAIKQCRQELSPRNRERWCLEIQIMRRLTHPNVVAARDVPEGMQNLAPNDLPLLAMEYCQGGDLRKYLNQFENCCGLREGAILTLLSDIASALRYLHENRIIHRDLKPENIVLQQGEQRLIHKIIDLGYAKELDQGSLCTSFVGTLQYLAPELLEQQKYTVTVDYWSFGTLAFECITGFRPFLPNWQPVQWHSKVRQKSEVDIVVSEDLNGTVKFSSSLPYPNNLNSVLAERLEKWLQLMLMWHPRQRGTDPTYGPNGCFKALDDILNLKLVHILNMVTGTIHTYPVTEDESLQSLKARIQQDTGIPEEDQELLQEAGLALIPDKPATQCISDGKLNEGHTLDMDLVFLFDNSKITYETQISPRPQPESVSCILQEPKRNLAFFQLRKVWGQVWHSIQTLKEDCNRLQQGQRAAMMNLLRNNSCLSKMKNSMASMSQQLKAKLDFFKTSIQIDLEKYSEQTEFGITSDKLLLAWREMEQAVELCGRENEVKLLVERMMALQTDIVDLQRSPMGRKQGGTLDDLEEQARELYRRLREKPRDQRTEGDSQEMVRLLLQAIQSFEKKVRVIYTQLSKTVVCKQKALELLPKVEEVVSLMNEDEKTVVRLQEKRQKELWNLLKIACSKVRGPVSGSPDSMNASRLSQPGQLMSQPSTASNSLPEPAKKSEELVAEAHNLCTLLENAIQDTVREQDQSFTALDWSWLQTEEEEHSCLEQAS
UniProt O94829: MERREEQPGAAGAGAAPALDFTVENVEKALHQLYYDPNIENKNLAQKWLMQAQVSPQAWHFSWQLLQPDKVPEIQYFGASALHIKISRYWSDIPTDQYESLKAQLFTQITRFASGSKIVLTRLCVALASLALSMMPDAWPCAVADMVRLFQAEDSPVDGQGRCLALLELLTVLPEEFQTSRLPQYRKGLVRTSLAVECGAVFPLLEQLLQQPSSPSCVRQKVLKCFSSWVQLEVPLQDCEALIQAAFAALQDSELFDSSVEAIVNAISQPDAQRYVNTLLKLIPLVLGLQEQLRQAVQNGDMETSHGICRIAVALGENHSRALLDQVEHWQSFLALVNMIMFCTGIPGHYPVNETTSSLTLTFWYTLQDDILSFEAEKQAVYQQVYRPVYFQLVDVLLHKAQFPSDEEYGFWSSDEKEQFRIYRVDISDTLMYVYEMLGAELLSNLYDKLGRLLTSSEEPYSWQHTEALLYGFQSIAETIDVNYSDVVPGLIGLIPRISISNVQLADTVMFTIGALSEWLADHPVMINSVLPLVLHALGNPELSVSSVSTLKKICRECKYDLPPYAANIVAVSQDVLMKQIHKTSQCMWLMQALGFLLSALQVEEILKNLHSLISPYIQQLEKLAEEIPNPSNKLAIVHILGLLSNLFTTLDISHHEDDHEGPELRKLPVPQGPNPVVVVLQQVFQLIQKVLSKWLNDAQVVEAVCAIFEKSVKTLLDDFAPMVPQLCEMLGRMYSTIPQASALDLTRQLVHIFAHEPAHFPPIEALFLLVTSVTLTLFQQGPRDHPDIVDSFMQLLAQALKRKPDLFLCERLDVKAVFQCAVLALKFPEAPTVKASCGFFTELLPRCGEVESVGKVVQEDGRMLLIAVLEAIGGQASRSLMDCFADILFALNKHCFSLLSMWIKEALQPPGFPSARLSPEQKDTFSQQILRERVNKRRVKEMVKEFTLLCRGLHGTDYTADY

What follows are targets tested with ClCC(=O)N[C@H]1CCCc2ccccc12 (assay: log2 mean competition ratio of IA-DTB cysteine labelling (DMSO/compound) (log2 ratio); higher = stronger cysteine engagement by compound). Conditions: 200 µM; treatment time: 4 h; cell line lysate: HEK293T.
Protocol: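 IA-DTB competitive cysteine chemoproteomics in HEK293T RIPA lysate. Lysates were treated with compound 29 or 30 at 50 or 200 µM for 4 h, then IA-DTB (500 µM, 1 h), trypsin-digested, NeutrAvidin-enriched and analysed by diaPASEF. Competition ratio = intensity DMSO / intensity compound (n=4 treated, n=64 DMSO); binding: mean log2 CR ≥ 1 and p ≤ 0.05 plus QC filters. Target is the cysteine site.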
In the case of HUWE1 C3658, the “log2 mean competition ratio” value is reported as -0.164.
In the case of IDI1 C39 (UniProt Q13907), the “log2 mean competition ratio” value is reported as 0.0251.
In the case of IGF2R C1282 (UniProt P11717), the “log2 mean competition ratio” value is reported as 0.196.
With HPF1 C152 (UniProt Q9NWY4) the “log2 mean competition ratio” value was -0.296.
IFT140 C663 (UniProt Q96RY7) was tested, and the “log2 mean competition ratio” value was 0.227.
With HYOU1 C352 the “log2 mean competition ratio” value was -0.129.
With HUWE1 C471 the “log2 mean competition ratio” value was 0.351.
IFNAR1 C426 (UniProt P17181) was tested, and the “log2 mean competition ratio” value was 0.01.
For INTS6 C264 (UniProt Q9UL03), the “log2 mean competition ratio” value was 0.141.
With HUWE1 C1879 the “log2 mean competition ratio” value was 0.0855.
For ICE1 C1254 (UniProt Q9Y2F5), the “log2 mean competition ratio” value was 0.513.
For IL17RA C632 (UniProt Q96F46), the “log2 mean competition ratio” value was -0.0886.
For IARS2 C883 (UniProt Q9NSE4), the “log2 mean competition ratio” value was 0.0187.
INTU C692 (UniProt Q9ULD6) was tested, and the “log2 mean competition ratio” value was 0.77.
In the case of ILKAP C312 (UniProt Q9H0C8), the “log2 mean competition ratio” value is reported as -0.133.
In the case of INPP5A C247 (UniProt Q14642), the “log2 mean competition ratio” value is reported as -0.245.
For HPS6 C141 (UniProt Q86YV9), the “log2 mean competition ratio” value was -0.1.
With HSPA1A;HSPA1B C306;(C306) the “log2 mean competition ratio” value was -0.0733.
HSPH1 C650 was tested, and the “log2 mean competition ratio” value was -0.097.
In the case of HUWE1 C29, the “log2 mean competition ratio” value is reported as 0.0902.
INTS11 C354 (UniProt Q5TA45) was tested, and the “log2 mean competition ratio” value was 0.0883.
In the case of IGF2R C1270 (UniProt P11717), the “log2 mean competition ratio” value is reported as -0.119.
HSPD1 C442 (UniProt P10809) was tested, and the “log2 mean competition ratio” value was 0.467.
In the case of IARS2 C1005 (UniProt Q9NSE4), the “log2 mean competition ratio” value is reported as 0.225.
ILK C428 (UniProt Q13418) was tested, and the “log2 mean competition ratio” value was 0.102.
In the case of HUS1 C44 (UniProt O60921), the “log2 mean competition ratio” value is reported as 0.549.
For IFIT5 C476 (UniProt Q13325), the “log2 mean competition ratio” value was -0.0532.
For IGF2BP1 C44 (UniProt Q9NZI8), the “log2 mean competition ratio” value was -0.0702.
With HPF1 C29 (UniProt Q9NWY4) the “log2 mean competition ratio” value was 0.116.
In the case of INPPL1 C215 (UniProt O15357), the “log2 mean competition ratio” value is reported as 0.0744.
For HPS3 C52 (UniProt Q969F9), the “log2 mean competition ratio” value was -0.106.
INTS7 C42 (UniProt Q9NVH2) was tested, and the “log2 mean competition ratio” value was 0.0869.
With IDH3B C185 (UniProt O43837) the “log2 mean competition ratio” value was -0.109.
IKBKB C464 (UniProt O14920) was tested, and the “log2 mean competition ratio” value was 0.67.
For IPO13 C309 (UniProt O94829), the “log2 mean competition ratio” value was 0.222.
For HUWE1 C2666, the “log2 mean competition ratio” value was -0.0713.
HSP90AA1 C572 (UniProt P07900) was tested, and the “log2 mean competition ratio” value was 0.181.
